The target of experiment [1] is glycosomal malate dehydrogenase (MDH, residues 1–323) (Trypanosoma cruzi) (UniProt Q4DRD8). The experiment can be described thus: cryo-EM structure; MDH-Pex5 binary complex reconstituted as the ternary complex but without Pex14NTD; both purified.
Experiment [2] shares this target. The experiment can be described thus: cryo-EM structure; ternary complex: purified MDH (tetramer), full-length Pex5 and Pex14NTD mixed at 1:4:12, overnight at 4 °C, separated on Superose6 10/300, vitrified at ~0.75 mg/mL; no cross-linking; MDH alone solved from the same dataset; both purified.

Results are given in words; binding and its absence hold for the method and conditions named. Binding can be weak; no strength is given.

B1: full length Pex5 (residues 1–666) (receptor, Trypanosoma cruzi, UniProt Q4DPQ9 1-668, looked up)
chain: MDCSTGAAIGQQFAKDAFHMHGGVGVGPTGNPEHDVLMNEMMMVQTPTGPAGEWTHQFAAYQGKQQQQHPQELAMRHQQNDALMLRQQQEMEEAFCTLCAAHPHSHAHSHAHSHQPQGLVGPAMMGPQIMPPMMFGPGSGGFMMGTPPMMPYASMKFAGDAAMAAANNTTMTQGATATSTTSVQQEQQQQQSSDNGWVEKLRDAEWAQDYSDAQVFTLEGQSEQTMEEHAKNSEFYQFMDKIRSKELLIDEETGQLVQGPGPDPDAPEDAEYLKEWAAAEGLNMPPGFFEHMMQRPQGNNEQAEGRLFDGSNDALMDDGALDNAADVEEWAREYAEAQEQLQRVQNETNYPFEPNNPYMYHDKPMEEGIAMLQLANMAEAALAFEAVCQKEPENVEAWRRLGTTQAENEKDCLAIIALNHARMLDPKDIAVHAALAVSHTNEHNVGAALQSLRSWLLSQPQYEHLGLVDLQEVAADEGLDEVPEENYFFAAPSEYRDCCTLLYAAVEMNPNDPQLHASLGVLHNLSHRFDEAAKNFRRAVELRPDDAHTWNKLGATLANGNRPQEALEAYNRALDINPGYVRVMYNMAVSYSNMAQYPLAAKHITRAIALQAGGTNPQGEGSRIATRGLWDLLRMTLNLMDRSDLVEASWQQDLTPFLKEFGLEDMAV
notes: Pex5, Trypanosoma cruzi, full length, residues 1-666, GenBank PBJ69826.1; Contains three Wxxx(F/Y) motifs; source: E. coli BL21 (DE3), purified (Ni-NTA, SEC)
Consider B1, for which the binding entry in experiment [1] and in experiment [2] was “binds” each time.

Source of the values: publication PMC12738837, “Structure of Trypanosoma peroxisomal import complex unveils conformational heterogeneity” (Nature Communications, 2025).
